Construct, isoform or probe ends are uncertain for at least one entry. For some of these results: The comparison behind a weaker result is the experiment's own reference, which may not be listed here. For some of these results: At least one verdict was read from the data and is not stated in words by the source.
What was measured:
[1] = tested on: Ku70/Ku80 CLH (core-linker-helix); assay: EMSA; conditions: not statistically different from wild type; EMSA: 20 ul, 500 fmol DNA, buffer as in earlier papers; recombinant protein; protein details: His (Ku70)
[2] = tested on: Ku70/Ku80 CL (core-linker); assay: EMSA; conditions: not statistically different from wild type; EMSA: 20 ul, 500 fmol DNA, buffer as in earlier papers; recombinant protein; protein details: His (Ku70)
Ku70/Ku80 core = assay: EMSA; conditions: not statistically different from wild type; EMSA: 20 ul, 500 fmol DNA, buffer as in earlier papers; recombinant protein; protein details: His (Ku70)
[3] = biological target: DNA-PKcs (human (HeLa cells)) (UniProt P78527); assay: ELISA; conditions: no Ku; ELISA: 20 mM HEPES pH 7.5, 75 mM KCl, 10% glycerol, 0.005% Triton X-100, 2 mM DTT, room temperature, 1 h, 2 pmol DNA, 424 ng DNA-PKcs; native protein; label: 5' biotin on one end
[4] = tested on: Ku70/Ku80 core + DNA-PKcs; assay: ELISA; conditions: wild-type level; ELISA: 20 mM HEPES pH 7.5, 75 mM KCl, 10% glycerol, 0.005% Triton X-100, 2 mM DTT, room temperature, 1 h, 2 pmol DNA, 424 ng DNA-PKcs; recombinant protein; protein details: His (Ku70); label: 5' biotin on one end
[5] = tested on: Ku70/Ku80 wild type + DNA-PKcs; assay: ELISA; conditions: same as 30bp, less than half of 60bp; ELISA: 20 mM HEPES pH 7.5, 75 mM KCl, 10% glycerol, 0.005% Triton X-100, 2 mM DTT, room temperature, 1 h, 2 pmol DNA, 424 ng DNA-PKcs; recombinant protein; protein details: His (Ku70); label: 5' biotin on one end

By UniProt entry, the sequences of proteins in these tests, tags left out.
UniProt P78527, whole entry: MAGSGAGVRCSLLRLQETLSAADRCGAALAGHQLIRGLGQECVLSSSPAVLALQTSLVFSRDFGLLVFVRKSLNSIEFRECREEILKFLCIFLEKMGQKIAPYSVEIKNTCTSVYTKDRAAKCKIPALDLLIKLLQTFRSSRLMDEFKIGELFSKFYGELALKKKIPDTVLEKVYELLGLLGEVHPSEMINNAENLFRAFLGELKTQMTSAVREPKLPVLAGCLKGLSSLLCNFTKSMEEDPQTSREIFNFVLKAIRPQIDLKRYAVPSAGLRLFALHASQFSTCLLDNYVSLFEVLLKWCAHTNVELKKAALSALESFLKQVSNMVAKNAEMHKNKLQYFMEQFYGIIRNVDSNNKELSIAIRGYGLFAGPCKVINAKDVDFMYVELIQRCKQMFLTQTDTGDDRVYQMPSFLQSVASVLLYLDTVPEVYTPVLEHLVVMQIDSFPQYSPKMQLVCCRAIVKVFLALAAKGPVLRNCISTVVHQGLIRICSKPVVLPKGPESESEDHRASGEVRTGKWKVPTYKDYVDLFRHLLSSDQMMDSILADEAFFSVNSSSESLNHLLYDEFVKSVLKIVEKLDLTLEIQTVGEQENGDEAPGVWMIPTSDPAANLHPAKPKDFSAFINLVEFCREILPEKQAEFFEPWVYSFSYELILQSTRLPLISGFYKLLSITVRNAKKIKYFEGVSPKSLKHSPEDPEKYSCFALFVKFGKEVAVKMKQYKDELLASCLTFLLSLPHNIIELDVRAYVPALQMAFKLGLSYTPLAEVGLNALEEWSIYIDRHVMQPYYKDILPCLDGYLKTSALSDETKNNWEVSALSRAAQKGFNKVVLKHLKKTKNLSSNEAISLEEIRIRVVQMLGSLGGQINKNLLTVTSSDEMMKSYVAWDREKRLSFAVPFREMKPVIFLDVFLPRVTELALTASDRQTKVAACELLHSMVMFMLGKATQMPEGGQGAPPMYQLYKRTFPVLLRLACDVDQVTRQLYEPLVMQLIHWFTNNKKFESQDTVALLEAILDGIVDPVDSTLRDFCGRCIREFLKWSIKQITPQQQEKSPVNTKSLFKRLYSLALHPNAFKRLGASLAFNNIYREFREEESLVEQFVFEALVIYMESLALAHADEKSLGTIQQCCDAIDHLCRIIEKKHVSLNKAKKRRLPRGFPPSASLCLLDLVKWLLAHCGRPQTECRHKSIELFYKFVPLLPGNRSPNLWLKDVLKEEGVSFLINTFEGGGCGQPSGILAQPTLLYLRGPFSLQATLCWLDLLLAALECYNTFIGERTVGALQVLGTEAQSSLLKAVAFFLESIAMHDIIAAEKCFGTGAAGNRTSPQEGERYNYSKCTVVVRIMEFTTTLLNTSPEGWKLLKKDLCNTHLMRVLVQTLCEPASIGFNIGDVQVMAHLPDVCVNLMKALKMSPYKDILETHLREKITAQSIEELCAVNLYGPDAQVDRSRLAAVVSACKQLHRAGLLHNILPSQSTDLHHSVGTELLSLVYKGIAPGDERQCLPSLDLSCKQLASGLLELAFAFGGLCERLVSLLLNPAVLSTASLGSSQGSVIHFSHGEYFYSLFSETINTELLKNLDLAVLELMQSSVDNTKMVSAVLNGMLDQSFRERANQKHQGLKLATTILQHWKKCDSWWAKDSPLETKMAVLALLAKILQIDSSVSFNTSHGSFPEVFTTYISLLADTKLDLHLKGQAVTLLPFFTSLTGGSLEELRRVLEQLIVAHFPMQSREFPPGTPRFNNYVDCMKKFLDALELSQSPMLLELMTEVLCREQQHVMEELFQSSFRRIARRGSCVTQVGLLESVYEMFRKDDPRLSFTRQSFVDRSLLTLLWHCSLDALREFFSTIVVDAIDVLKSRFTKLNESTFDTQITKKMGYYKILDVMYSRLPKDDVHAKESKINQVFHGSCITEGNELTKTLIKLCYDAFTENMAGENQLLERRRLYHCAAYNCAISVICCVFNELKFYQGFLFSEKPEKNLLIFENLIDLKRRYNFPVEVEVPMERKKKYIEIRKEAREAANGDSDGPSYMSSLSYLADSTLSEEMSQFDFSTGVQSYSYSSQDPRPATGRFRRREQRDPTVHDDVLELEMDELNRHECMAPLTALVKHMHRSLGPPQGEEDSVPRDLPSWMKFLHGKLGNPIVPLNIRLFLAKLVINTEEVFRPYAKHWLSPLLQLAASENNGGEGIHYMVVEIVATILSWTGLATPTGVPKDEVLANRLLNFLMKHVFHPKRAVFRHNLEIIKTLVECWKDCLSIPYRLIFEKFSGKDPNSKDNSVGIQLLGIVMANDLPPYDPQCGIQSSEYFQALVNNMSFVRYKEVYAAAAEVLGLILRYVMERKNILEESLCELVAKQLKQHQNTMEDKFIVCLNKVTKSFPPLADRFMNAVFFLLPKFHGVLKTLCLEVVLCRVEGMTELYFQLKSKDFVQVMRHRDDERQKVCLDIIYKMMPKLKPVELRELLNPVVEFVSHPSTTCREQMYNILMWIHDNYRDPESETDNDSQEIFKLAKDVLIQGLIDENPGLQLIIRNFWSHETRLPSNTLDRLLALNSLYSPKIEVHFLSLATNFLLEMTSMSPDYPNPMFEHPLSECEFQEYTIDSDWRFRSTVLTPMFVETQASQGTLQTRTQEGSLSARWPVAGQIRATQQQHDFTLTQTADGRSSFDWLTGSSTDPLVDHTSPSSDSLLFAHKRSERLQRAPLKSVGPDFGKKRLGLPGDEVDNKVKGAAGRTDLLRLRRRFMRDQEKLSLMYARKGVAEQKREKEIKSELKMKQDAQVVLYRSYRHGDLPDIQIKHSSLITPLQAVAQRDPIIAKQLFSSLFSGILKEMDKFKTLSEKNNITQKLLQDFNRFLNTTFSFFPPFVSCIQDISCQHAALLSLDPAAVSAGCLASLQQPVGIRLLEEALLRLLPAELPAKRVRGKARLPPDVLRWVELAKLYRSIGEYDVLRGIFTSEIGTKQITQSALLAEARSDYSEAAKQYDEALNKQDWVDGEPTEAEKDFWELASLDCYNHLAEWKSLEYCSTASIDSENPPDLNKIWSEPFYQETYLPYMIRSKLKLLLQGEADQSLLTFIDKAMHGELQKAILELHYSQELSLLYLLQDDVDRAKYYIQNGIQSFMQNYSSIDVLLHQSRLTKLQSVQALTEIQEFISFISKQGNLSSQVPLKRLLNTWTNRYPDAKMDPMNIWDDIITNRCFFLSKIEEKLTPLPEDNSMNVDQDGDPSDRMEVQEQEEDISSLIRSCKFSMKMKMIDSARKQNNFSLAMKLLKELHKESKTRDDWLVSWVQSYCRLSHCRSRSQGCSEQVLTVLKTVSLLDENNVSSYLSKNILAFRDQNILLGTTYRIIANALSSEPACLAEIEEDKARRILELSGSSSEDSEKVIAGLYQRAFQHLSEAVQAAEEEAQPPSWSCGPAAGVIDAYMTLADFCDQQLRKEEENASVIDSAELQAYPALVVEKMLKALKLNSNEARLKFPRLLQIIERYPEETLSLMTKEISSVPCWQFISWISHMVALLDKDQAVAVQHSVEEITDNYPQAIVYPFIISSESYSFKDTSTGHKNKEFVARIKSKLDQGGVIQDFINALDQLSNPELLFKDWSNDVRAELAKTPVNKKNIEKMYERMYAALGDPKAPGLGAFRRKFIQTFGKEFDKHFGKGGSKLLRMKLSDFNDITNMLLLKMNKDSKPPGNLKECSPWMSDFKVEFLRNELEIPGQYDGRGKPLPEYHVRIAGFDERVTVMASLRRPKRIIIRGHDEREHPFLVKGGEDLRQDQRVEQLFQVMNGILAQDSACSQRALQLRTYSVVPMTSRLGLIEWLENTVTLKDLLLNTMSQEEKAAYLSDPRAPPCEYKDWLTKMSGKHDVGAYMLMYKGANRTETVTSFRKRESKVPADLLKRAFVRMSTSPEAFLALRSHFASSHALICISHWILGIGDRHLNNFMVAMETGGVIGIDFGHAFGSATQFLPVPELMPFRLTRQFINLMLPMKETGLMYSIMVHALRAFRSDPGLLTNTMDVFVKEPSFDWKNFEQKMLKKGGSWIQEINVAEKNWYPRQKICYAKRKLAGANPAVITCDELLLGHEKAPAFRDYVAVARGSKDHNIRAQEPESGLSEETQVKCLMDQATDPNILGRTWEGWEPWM

Sequence: CACTTCCAACAGAGGTGACACTGCCTTCAG (double strand) [30bp blunt (EMSA)]
- binding result [1]: binds
- binding result [2]: binds
- binding result (Ku70/Ku80 core): binds

Sequence: CACTTCCAACAGAGGTGACACTGCCTTCAG (double strand) [30bp blunt, biotinylated]
- binding result [3]: binds more weakly

Sequence: CTTGACCAGTAGTCTAGCACGTGACGATTGCATGCGTCAAGTAAGATGCAGATACTTAAC (double strand) [60bp blunt, biotinylated]
- binding result [3]: binds more weakly

Sequence: TGACATTGAATTCTCTCCACCATATGGAATTTGATTATGTAATATGCGAAGAATGTGGGAAAGAATTTATGGATTCTTATCTTATGAACCACTTTGATTTGCCAACTTGTGATAACTGCAGAGATGCTGATGATAAACACAAGCTTATAACCAAAACAGAGGCAAAACAAGAATATCTTCTGAAAGACTGTGATTTAGAAAAAAGAGAGCCACCTCTTAAATTTATTGTGAAGAAGAATCCACATCATTCACAATGGGGTGATATGAAACTCTACTTAAAGTTACAGATTGTGAAGAGGTCTCTTGAAGTTTGGGGTAGTCAAGAAGCATTAGAAGAAGCAAAGGAAGTCCGACAGGAAAACCGAGAAAAAATGAAACAGAAGAAATTTTAGTAGGGATCCGTGGATTGAATTCCCTCCGA (double strand) [421bp (~400bp) blunt, biotinylated]
- binding result [4]: binds
- binding result [5]: binds

From article PMC4433226
